This is an account of results in patent US20250283871A1, “COMPOSITIONS AND METHODS FOR MODULATING THE INTERACTION BETWEEN SS18-SSX FUSION ONCOPROTEIN AND NUCLEOSOMES” (Dana-Farber Cancer Institute, Inc., priority 2020, published 2025).

For this data set, the system named is BAF complex subunits and histone proteins. In words: Mass spectrometry proteomics of purified HA-SS18 WT and HA-SS18-SSX1 complexes (Tables 5A-5E). Set-up: species or system human. To be noted: HEK-293T.
Where [1] appears, read: HA-SS18SSX1_CHR_peptides: protein identified in the HA-SS18-SSX1 purification from solubilized chromatin (CHR).
The mark [2] stands for this setting: HA-SS18WT_CHR_peptides: HA-SS18 WT purification from nuclease-treated solubilized chromatin (CHR), label = protein identified.
Setting [3] is: HA-SS18WT_NE_peptides: proteins co-purified with HA-SS18 WT from nuclear extract (NE).

B1: AQR (protein, UniProt O60306 1-1485, looked up)
RNA helicase aquarius: MAAPAQPKKIVAPTVSQINAEFVTQLACKYWAPHIKKKSPFDIKVIEDIYEKEIVKSRFAIRKIMLLEFSQYLENYLWMNYSPEVSSKAYLMSICCMVNEKFRENVPAWEIFKKKPDHFPFFFKHILKAALAETDGEFSLHEQTVLLLFLDHCFNSLEVDLIRSQVQQLISLPMWMGLQLARLELELKKTPKLRKFWNLIKKNDEKMDPEAREQAYQERRFLSQLIQKFISVLKSVPLSEPVTMDKVHYCERFIELMIDLEALLPTRRWFNTILDDSHLLVHCYLSNLVRREEDGHLFSQLLDMLKFYTGFEINDQTGNALTENEMTTIHYDRITSLQRAAFAHFPELYDFALSNVAEVDTRESLVKFFGPLSSNTLHQVASYLCLLPTLPKNEDTTFDKEFLLELLVSRHERRISQIQQLNQMPLYPTEKIIWDENIVPTEYYSGEGCLALPKLNLQFLTLHDYLLRNFNLFRLESTYEIRQDIEDSVSRMKPWQSEYGGVVFGGWARMAQPIVAFTVVEVAKPNIGENWPTRVRADVTINLNVRDHIKDEWEGLRKHDVCFLITVRPTKPYGTKFDRRRPFIEQVGLVYVRGCEIQGMLDDKGRVIEDGPEPRPNLRGESRTFRVFLDPNQYQQDMTNTIQNGAEDVYETFNIIMRRKPKENNFKAVLETIRNLMNTDCVVPDWLHDIILGYGDPSSAHYSKMPNQIATLDFNDTFLSIEHLKASFPGHNVKVTVEDPALQIPPFRITFPVRSGKGKKRKDADVEDEDTEEAKTLIVEPHVIPNRGPYPYNQPKRNTIQFTHTQIEAIRAGMQPGLTMVVGPPGTGKTDVAVQIISNIYHNFPEQRTLIVTHSNQALNQLFEKIMALDIDERHLLRLGHGEEELETEKDFSRYGRVNYVLARRIELLEEVKRLQKSLGVPGDASYTCETAGYFFLYQVMSRWEEYISKVKNKGSTLPDVTEVSTFFPFHEYFANAPQPIFKGRSYEEDMEIAEGCFRHIKKIFTQLEEFRASELLRSGLDRSKYLLVKEAKIIAMTCTHAALKRHDLVKLGFKYDNILMEEAAQILEIETFIPLLLQNPQDGFSRLKRWIMIGDHHQLPPVIKNMAFQKYSNMEQSLFTRFVRVGVPTVDLDAQGRARASLCNLYNWRYKNLGNLPHVQLLPEFSTANAGLLYDFQLINVEDFQGVGESEPNPYFYQNLGEAEYVVALFMYMCLLGYPADKISILTTYNGQKHLIRDIINRRCGNNPLIGRPNKVTTVDRFQGQQNDYILLSLVRTRAVGHLRDVRRLVVAMSRARLGLYIFARVSLFQNCFELTPAFSQLTARPLHLHIIPTEPFPTTRKNGERPSHEVQIIKNMPQMANFVYNMYMHLIQTTHHYHQTLLQLPPAMVEEGEEVQNQETELETEEEAMTVQADIIPSPTDTSCRQETPAFQTDTTPSETGATSTPEAIPALSETTPTVVGAVSAPAEANTPQDATSAPEETK
In the case of B1, under setting [1], the “Total (total peptides)” value is recorded as 14 and the “Unique (unique peptides)” value is 12. Also, under setting [2], the “Total (peptides)” value turned out to be 7 and the “Unique (peptides)” value turned out to be 6. Further, under setting [3], the “Total (peptides)” value is reported as 1 and the “Unique (peptides)” value came out at 1.
